No constants are given. Whether binding was seen depends on the method and setting. In cells and extracts the contact can be indirect. A result given as binding can be weak or reduced; the word gives no strength.
Biological target: TNFR1 (human (endogenous in MCF-7))
Experiment: co-IP; 400 ug MCF-7 lysate (25 mM Tris-HCl pH 7.4, 150 mM NaCl, 1 mM EDTA, 1% NP-40, 5% glycerol) incubated overnight with rabbit monoclonal anti-TNFRI antibody, Protein A beads 4 h; blots for FADD, TRADD and TNFRI; cells treated with Z-DAN-11 for several times

binding: binds
B1: TRADD (protein, UniProt Q15628 1-312)
chain: MAAGQNGHEEWVGSAYLFVESSLDKVVLSDAYAHPQQKVAVYRALQAALAESGGSPDVLQMLKIHRSDPQLIVQLRFCGRQPCGRFLRAYREGALRAALQRSLAAALAQHSVPLQLELRAGAERLDALLADEERCLSCILAQQPDRLRDEELAELEDALRNLKCGSGARGGDGEVASAPLQPPVPSLSEVKPPPPPPPAQTFLFQGQPVVNRPLSLKDQQTFARSVGLKWRKVGRSLQRGCRALRDPALDSLAYEYEREGLYEQAFQLLRRFVQAEGRRATLQRLVEALEENELTSLAEDLLGLTDPNGGLA

— article PMC5906627
